Some of these results come from one statement about several compounds together.
How the values were obtained:
[1] = Plasma protein binding by equilibrium dialysis, monkey; assay type: in vitro ADME; details: listed as compound III
Description: (§1) The in vitro plasma protein binding of compound I and compound III in rat, dog, monkey and human plasma was determined by equilibrium dialysis. Protein binding was assessed by equilibrium dialysis using rat, dog, monkey and human plasma. Samples were assayed by HPLC with LC-MS/MS detection. Plasma protein binding was high (>99%) for all species and for both compounds.

[2] = Plasma protein binding by equilibrium dialysis, human; assay type: in vitro ADME; details: listed as compound III
Description: as §1

Compound: CO[P@](=O)(c1cc(C)cc(/C=C/C#N)c1)c1c(C(N)=O)[nH]c2ccc(Cl)cc12 [Compound III, (2-Carbamoyl-5-chloro-1H-indol-3-yl)-[3-((E)-2-cyano-vinyl)-5-methyl-phenyl]-(R)-phosphinic acid methyl ester]
- Percentage Plasma Protein Binding, Monkeys [1]: > 99%
- Percentage Plasma Protein Binding, Humans [2]: > 99%

Reference: patent publication US8486991B2, “Enantiomerically pure phosphoindoles as HIV inhibitors” (Idenix Pharmaceuticals, Inc., priority 2006, dated 2013)
